Experimental data reported in article PMC5653238.
These are yes or no findings as the source states them, for the method shown. In cells and extracts the contact can be indirect. Some results given as binding are weak or reduced against the parent protein; the word gives no strength. Sequences can lack the tags named with a protein.

Target: T1, GFP-delta-tubulin (human) (UniProt Q9UJT1)
T1 sequence: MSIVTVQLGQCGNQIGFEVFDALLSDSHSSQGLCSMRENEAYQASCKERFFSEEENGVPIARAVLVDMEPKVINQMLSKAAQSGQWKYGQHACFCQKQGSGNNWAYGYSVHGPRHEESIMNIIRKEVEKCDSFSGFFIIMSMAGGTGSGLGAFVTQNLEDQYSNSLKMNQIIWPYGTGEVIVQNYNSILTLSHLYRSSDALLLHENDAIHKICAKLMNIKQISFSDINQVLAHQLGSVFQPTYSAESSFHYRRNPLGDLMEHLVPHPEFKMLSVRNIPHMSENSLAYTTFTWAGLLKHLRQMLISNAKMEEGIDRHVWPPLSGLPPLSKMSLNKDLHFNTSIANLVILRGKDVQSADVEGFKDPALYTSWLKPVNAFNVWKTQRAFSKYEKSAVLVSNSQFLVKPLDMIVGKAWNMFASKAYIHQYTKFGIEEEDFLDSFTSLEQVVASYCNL
Assay: co-IP; HEK293T cells co-transfected with tagged proteins; lysate (50 mM Hepes pH 7.4, 150 mM NaCl, 1 mM DTT, 1 mM EGTA, 1 mM MgCl2, 0.25 mM GTP, 0.5% Triton X-100) incubated 2 hr at 4°C with GFP-binding protein on Sepharose; blots with anti-GFP and anti-myc

- binding: binds
B1: myc-epsilon-tubulin (protein, UniProt Q9UJT0 1-475)
chain: MTQSVVVQVGQCGNQIGCCFWDLALREHAAVNQKGIYDEAISSFFRNVDTRVVGDGGSISKGKICSLKARAVLIDMEEGVVNEILQGPLRDVFDTKQLITDISGSGNNWAVGHKVFGSLYQDQILEKFRKSAEHCDCLQCFFIIHSMGGGTGSGLGTFLLKVLEDEFPEVYRFVTSIYPSGEDDVITSPYNSILAMKELNEHADCVLPIDNQSLFDIISKIDLMVNSGKLGTTVKPKSLVTSSSGALKKQHKKPFDAMNNIVANLLLNLTSSARFEGSLNMDLNEISMNLVPFPQLHYLVSSLTPLYTLTDVNIPPRRLDQMFSDAFSKDHQLLRADPKHSLYLACALMVRGNVQISDLRRNIERLKPSLQFVSWNQEGWKTSLCSVPPVGHSHSLLALANNTCVKPTFMELKERFMRLYKKKAHLHHYLQVEGMEESCFTEAVSSLSALIQEYDQLDATKNMPVQDLPRLSIAM
